pIC50, pKi: −log10 of the molar value.
Legend:
[1] = target: T1, Alpha-1B adrenergic receptor (Rattus norvegicus, UniProt P15823); experiment: DRUGMATRIX: Alpha-1B adrenergic receptor radioligand binding (ligand: prazosin); format: cell membranes, Wistar, Liver, Membrane; conditions: Not Active = under 50% inhibition at 10 µM
T1 sequence (P15823 whole entry): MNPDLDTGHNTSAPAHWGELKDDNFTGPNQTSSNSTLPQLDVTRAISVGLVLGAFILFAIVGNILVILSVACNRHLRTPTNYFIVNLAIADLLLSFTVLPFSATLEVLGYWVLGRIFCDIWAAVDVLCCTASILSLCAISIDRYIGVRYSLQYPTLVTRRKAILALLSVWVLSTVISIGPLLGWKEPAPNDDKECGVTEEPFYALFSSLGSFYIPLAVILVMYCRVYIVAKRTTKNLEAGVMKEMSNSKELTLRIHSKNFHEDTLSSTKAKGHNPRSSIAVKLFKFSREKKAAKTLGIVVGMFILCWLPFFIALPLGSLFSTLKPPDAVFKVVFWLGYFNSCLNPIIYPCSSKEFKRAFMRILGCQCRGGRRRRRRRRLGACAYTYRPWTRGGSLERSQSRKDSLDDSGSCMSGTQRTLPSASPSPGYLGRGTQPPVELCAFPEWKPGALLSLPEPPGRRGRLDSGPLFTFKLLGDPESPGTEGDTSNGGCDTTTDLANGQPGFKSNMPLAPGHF

Protein sequences, listed by entry. Tags and fused reporters are not part of them. Lines headed by an entry give the natural chain unless they say otherwise; changes in a name come on top.
UniProt P08588, whole entry: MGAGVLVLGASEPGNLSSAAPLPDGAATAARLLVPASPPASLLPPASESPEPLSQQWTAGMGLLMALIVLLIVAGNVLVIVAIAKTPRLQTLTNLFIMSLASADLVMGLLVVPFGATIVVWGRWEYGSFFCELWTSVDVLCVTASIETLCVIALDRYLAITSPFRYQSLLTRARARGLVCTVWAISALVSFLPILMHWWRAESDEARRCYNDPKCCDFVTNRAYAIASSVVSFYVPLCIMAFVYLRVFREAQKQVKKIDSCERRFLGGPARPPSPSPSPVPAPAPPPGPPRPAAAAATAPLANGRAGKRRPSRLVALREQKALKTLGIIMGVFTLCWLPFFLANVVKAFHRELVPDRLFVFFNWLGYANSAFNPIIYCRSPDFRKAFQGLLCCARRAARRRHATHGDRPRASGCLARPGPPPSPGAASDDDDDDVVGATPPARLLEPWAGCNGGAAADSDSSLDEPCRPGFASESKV
UniProt P50052: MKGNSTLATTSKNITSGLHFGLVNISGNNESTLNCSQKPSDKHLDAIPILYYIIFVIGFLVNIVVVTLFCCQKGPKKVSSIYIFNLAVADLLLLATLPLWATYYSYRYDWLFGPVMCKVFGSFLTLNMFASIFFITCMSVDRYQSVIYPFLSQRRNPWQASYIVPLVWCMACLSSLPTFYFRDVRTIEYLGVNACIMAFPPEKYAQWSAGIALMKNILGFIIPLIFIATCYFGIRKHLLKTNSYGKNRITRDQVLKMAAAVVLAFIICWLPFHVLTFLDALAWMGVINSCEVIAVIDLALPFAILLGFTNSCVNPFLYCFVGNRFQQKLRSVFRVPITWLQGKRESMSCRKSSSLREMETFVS
UniProt P50406, whole entry: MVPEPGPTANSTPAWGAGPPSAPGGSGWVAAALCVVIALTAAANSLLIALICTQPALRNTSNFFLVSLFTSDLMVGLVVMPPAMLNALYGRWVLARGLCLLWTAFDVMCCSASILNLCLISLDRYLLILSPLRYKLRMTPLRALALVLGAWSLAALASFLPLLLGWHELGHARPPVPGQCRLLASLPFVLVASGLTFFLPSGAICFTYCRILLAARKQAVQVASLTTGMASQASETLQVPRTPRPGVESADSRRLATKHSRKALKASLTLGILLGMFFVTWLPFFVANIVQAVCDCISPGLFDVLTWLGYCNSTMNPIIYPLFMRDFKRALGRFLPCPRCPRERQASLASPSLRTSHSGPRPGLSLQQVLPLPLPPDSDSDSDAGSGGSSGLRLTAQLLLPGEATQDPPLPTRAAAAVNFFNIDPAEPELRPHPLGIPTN
UniProt Q99720, whole entry: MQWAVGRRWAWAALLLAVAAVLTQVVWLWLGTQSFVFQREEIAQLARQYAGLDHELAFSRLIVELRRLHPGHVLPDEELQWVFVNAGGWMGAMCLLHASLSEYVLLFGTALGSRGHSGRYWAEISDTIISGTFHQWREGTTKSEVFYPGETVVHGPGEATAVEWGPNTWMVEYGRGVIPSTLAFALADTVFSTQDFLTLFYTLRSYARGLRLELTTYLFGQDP
UniProt P25103, whole entry: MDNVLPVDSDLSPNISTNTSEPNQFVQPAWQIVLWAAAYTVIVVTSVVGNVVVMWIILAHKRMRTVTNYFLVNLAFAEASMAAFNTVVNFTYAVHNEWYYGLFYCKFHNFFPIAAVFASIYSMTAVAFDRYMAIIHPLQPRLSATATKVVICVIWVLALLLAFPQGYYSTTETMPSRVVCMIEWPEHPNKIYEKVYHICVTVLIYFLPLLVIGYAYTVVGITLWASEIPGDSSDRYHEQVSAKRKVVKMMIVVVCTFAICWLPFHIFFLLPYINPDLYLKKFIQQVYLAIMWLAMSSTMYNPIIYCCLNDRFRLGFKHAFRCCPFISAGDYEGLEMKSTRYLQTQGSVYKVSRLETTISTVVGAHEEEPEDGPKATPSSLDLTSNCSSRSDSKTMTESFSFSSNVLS
UniProt P51679: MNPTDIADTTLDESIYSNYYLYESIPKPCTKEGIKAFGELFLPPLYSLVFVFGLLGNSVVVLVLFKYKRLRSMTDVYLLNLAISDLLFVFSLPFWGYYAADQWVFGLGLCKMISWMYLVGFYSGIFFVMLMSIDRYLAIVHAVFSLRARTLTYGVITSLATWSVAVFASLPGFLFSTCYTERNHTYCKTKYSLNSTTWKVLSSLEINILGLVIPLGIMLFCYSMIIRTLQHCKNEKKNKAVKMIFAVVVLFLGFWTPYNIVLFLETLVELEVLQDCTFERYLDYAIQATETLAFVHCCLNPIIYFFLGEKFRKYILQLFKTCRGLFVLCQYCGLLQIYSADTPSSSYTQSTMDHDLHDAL
UniProt P51681, whole entry: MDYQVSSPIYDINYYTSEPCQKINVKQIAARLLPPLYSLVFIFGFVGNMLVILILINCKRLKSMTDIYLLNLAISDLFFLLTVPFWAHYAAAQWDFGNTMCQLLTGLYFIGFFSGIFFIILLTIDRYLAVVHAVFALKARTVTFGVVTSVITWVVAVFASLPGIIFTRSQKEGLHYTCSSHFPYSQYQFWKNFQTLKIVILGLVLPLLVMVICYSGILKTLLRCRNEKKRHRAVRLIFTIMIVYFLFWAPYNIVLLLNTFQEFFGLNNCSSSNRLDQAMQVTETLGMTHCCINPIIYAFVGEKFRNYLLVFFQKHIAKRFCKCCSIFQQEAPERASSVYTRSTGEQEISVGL
UniProt P23219, whole entry: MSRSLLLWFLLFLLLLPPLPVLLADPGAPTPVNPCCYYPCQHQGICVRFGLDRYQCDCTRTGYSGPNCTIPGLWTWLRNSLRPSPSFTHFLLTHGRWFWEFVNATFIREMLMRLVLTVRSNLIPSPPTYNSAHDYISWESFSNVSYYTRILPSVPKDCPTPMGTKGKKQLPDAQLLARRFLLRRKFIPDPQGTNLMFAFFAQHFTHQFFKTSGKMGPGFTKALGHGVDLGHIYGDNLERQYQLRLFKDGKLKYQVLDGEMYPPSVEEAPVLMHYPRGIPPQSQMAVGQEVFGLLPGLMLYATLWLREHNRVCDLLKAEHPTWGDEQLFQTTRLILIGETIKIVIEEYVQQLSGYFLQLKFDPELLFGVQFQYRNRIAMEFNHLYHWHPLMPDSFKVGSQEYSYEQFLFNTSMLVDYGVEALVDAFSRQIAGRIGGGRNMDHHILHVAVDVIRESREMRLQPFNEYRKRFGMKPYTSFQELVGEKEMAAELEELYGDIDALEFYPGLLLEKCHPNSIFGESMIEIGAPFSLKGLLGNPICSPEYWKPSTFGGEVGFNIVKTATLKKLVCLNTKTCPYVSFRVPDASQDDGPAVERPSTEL
UniProt P21728, whole entry: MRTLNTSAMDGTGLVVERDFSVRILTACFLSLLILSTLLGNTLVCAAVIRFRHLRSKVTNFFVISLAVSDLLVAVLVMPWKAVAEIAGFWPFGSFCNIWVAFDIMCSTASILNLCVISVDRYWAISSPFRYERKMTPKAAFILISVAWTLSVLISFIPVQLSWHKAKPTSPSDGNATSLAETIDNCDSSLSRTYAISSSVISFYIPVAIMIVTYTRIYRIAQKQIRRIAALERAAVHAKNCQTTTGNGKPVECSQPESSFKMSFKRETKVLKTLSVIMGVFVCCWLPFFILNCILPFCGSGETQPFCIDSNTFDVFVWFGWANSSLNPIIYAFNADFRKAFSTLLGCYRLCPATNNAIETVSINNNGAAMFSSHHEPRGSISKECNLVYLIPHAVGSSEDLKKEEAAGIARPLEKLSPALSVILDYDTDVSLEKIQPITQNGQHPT
UniProt P21917, whole entry: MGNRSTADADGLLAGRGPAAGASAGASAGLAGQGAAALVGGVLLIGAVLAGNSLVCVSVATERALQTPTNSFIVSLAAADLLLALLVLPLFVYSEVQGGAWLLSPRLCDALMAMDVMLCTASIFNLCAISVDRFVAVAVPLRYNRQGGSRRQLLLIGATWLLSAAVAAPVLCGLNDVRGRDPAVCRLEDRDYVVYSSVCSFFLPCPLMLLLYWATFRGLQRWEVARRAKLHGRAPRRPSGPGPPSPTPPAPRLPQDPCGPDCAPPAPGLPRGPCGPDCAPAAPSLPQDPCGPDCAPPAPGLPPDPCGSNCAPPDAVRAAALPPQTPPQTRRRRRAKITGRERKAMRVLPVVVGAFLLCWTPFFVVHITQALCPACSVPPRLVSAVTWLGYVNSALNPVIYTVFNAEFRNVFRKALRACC
UniProt P32245, whole entry: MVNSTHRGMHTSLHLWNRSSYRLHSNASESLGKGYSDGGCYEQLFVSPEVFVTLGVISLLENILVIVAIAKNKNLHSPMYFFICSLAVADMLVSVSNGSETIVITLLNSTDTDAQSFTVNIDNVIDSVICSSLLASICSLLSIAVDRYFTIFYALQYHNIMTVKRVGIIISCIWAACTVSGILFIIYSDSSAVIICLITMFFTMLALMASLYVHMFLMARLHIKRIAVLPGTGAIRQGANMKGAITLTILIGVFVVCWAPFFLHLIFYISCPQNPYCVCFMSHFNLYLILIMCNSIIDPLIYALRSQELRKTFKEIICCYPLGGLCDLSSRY
UniProt P27361, whole entry: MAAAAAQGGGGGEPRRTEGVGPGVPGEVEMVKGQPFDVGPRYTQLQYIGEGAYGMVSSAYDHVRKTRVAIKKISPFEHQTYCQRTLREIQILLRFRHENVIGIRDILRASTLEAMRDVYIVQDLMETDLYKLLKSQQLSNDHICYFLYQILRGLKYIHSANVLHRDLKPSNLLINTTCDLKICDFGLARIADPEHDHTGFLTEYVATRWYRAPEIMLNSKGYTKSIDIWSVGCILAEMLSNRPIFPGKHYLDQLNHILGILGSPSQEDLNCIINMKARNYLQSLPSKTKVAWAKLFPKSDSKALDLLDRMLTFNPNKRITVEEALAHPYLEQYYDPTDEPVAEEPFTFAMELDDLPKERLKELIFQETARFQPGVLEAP
UniProt P06239: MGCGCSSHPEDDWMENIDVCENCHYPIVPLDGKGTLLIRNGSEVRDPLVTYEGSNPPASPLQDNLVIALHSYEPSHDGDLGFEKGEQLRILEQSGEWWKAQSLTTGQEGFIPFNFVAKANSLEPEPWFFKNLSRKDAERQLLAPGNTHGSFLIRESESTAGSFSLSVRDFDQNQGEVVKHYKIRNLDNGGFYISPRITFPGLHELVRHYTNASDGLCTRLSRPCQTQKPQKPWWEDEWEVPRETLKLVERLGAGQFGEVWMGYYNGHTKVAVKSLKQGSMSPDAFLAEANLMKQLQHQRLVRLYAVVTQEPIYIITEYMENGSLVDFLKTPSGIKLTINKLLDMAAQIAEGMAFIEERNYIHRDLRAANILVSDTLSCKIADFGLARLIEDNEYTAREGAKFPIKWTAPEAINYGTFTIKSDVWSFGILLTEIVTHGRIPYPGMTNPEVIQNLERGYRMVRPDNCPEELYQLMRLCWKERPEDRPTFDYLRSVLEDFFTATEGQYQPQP
UniProt P10635, whole entry: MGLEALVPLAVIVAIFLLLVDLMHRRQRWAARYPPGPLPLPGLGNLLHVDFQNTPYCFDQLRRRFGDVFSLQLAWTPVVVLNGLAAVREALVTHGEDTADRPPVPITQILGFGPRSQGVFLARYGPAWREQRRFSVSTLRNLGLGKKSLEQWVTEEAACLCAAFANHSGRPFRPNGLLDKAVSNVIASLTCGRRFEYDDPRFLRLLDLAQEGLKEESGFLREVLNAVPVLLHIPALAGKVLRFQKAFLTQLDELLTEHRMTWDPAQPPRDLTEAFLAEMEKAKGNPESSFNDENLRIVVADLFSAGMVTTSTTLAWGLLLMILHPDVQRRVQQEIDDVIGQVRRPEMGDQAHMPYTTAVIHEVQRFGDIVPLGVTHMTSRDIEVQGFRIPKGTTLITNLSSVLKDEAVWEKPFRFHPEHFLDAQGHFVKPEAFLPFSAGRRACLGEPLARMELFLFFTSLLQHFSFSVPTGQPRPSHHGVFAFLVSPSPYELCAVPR

[2] = target: Beta-1 adrenergic receptor (Homo sapiens, UniProt P08588); experiment: DRUGMATRIX: Adrenergic beta1 radioligand binding (ligand: [125I] Cyanopindolol); format: cell membranes, Membrane; conditions: cho-k1; Not Active = under 50% inhibition at 10 µM
[3] = target: Type-2 angiotensin II receptor (Homo sapiens, UniProt P50052); format: cell-based; conditions: cho-k1; note: in other assays of this panel Not Active means under 50% inhibition at 10 µM
[4] = target: T2, 5-hydroxytryptamine receptor 2C (Homo sapiens, UniProt P28335); experiment: DRUGMATRIX: Serotonin (5-Hydroxytryptamine) 5-HT2C radioligand binding (ligand: [3H] Mesulergine); format: cell membranes, CHO-K1, Membrane; conditions: Not Active = under 50% inhibition at 10 µM
T2 sequence (P28335 whole entry): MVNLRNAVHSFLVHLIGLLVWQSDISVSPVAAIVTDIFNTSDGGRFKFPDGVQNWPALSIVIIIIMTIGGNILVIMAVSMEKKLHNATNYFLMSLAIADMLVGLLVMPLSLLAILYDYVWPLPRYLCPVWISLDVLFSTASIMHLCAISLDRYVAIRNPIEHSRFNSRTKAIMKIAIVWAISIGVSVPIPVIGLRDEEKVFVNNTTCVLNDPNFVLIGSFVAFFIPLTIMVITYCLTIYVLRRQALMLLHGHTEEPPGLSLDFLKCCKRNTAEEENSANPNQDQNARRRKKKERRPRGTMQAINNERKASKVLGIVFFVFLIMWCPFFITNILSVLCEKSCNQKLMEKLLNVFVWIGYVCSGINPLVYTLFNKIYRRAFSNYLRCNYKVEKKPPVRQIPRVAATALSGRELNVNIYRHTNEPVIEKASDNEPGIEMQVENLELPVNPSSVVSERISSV

[5] = target: 5-hydroxytryptamine receptor 6 (Homo sapiens, UniProt P50406); format: cell membranes, Membrane; conditions: hela; note: in other assays of this panel Not Active means under 50% inhibition at 10 µM
[6] = target: Sigma non-opioid intracellular receptor 1 (Homo sapiens, UniProt Q99720); experiment: DRUGMATRIX: Sigma1 radioligand binding (ligand: [3H] Haloperidol); format: cell membranes, Membrane; conditions: jurkat; Not Active = under 50% inhibition at 10 µM
Substance-P receptor = Substance-P receptor (Homo sapiens, UniProt P25103); format: cell membranes, Membrane; conditions: cho; note: in other assays of this panel Not Active means under 50% inhibition at 10 µM
Carbonic anhydrase 2 = Carbonic anhydrase 2 (Homo sapiens, UniProt P00918); experiment: DRUGMATRIX: Carbonic Anhydrase II enzyme inhibition (substrate: 4-Nitrophenyl acetate (4-NPA)); format: tissue-based; conditions: erythrocyte; Not Active = under 50% inhibition at 10 µM
[7] = target: C-C chemokine receptor type 4 (Homo sapiens, UniProt P51679); format: cell membranes, Membrane; conditions: chem-1; note: in other assays of this panel Not Active means under 50% inhibition at 10 µM
[8] = target: C-C chemokine receptor type 5 (Homo sapiens, UniProt P51681); format: cell membranes, Membrane; conditions: hek293; note: in other assays of this panel Not Active means under 50% inhibition at 10 µM
[9] = target: Prostaglandin G/H synthase 1 (Homo sapiens, UniProt P23219); format: tissue-based; conditions: platelet
D(1A) dopamine receptor = D(1A) dopamine receptor (Homo sapiens, UniProt P21728); experiment: DRUGMATRIX: Dopamine D1 radioligand binding (ligand: [3H] SCH-23390); format: cell membranes, Membrane; conditions: cho; Not Active = under 50% inhibition at 10 µM
D(4) dopamine receptor = D(4) dopamine receptor (Homo sapiens, UniProt P21917); experiment: DRUGMATRIX: Dopamine D4.2 radioligand binding (ligand: [3H] Spiperone); format: cell membranes, Membrane; conditions: cho-k1; Not Active = under 50% inhibition at 10 µM
Melanocortin receptor 4 = Melanocortin receptor 4 (Homo sapiens, UniProt P32245); format: cell membranes, HEK293, Membrane; note: in other assays of this panel Not Active means under 50% inhibition at 10 µM
[10] = target: Mitogen-activated protein kinase 3 (Homo sapiens, UniProt P27361); experiment: DRUGMATRIX: Protein Serine/Threonine Kinase, ERK1 enzyme inhibition (substrate: Myelin Basic Protein); parameters: species or system Escherichia coli; conditions: Not Active = under 50% inhibition at 10 µM
[11] = target: Epidermal growth factor receptor (Homo sapiens, UniProt P00533); experiment: DRUGMATRIX: Protein Tyrosine Kinase, EGF Receptor enzyme inhibition (substrate: Poly(Glu:Tyr)); format: cell-based, Insect cells; conditions: Not Active = under 50% inhibition at 10 µM
[12] = target: Tyrosine-protein kinase Lck (Homo sapiens, UniProt P06239); experiment: DRUGMATRIX: Protein Tyrosine Kinase, LCK enzyme inhibition (substrate: Poly(Glu:Tyr)); format: cell-based, Insect cells; conditions: Not Active = under 50% inhibition at 10 µM
[13] = target: T3, 5-hydroxytryptamine receptor 1A (Rattus norvegicus, UniProt P19327); format: cell membranes, CHO-K1, Membrane; note: in other assays of this panel Not Active means under 50% inhibition at 10 µM
T3 sequence (P19327 whole entry): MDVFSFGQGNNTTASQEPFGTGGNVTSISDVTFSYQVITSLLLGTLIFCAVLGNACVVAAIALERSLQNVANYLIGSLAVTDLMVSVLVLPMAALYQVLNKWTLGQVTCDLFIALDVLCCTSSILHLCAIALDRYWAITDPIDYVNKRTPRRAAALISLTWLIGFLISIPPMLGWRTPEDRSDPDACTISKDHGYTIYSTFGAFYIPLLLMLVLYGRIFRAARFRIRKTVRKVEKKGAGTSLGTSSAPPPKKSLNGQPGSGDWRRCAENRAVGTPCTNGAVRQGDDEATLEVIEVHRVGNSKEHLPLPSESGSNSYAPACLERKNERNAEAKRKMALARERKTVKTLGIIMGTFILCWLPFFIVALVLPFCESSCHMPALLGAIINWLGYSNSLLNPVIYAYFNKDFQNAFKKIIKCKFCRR

Cytochrome P450 2D6 = Cytochrome P450 2D6 (Homo sapiens, UniProt P10635); conditions: bti-tn-5b1-4; note: in other assays of this panel Not Active means under 50% inhibition at 10 µM

Row | Compound | IC50 [1] | IC50 [2] | IC50 [3] | IC50 [5] | IC50 [6] | IC50 (Substance-P receptor) | IC50 (Carbonic anhydrase 2) | IC50 [7] | IC50 [8] | IC50 [9] | IC50 (D(1A) dopamine receptor) | IC50 (D(4) dopamine receptor) | IC50 [10] | IC50 (Cytochrome P450 2D6) | Ki (Cytochrome P450 2D6) | other results
1 | CCCCCCCCCCCCCCCC[n+]1ccccc1.[Br-] | Not Active | Not Active | Not Active | Not Active | Not Active | Not Active | Not Active | Not Active | Not Active | Not Active | Not Active | Not Active | Not Active | Not Active | Not Active | pKi [4]: 6.17; pIC50 ([4]; read-out: IC50): 5.89; pKi (Melanocortin receptor 4): 5.31; pIC50 (Melanocortin receptor 4; read-out: IC50): 5.29; pIC50 ([11]; read-out: IC50): 5.46; Ki ([11]; insect cells): Note: corresponding IC50 reported as Active; pIC50 ([12]; read-out: IC50): 5.50; Ki ([12]; insect cells): Note: corresponding IC50 reported as Active; pKi [13]: 5.79; pIC50 ([13]; read-out: IC50): 5.55
2 | CCN(Cc1ccncc1)C(=O)C(CO)c1ccccc1 (stereo not given) [TROPICAMIDE] | Not Active | Not Active | Not Active | Not Active | Not Active | Not Active | Not Active | Not Active | Not Active | Not Active | Not Active | Not Active | Not Active | Not Active | Not Active | IC50 ([4]; cho-k1): Not Active; IC50 (Melanocortin receptor 4; hek293): Not Active; IC50 ([11]; insect cells): Not Active; IC50 ([12]; insect cells): Not Active; IC50 ([13]; cho-k1): Not Active

Source: ChEMBL document CHEMBL1909046, “DrugMatrix in vitro pharmacology data”
